Results from article PMC7887217.
Results are given in words; binding and its absence hold for the method and conditions named. Binding seen in cells or lysates may run through a third protein. A result given as binding can be weak or reduced; the word gives no strength. For some assays here: Tags and fused reporters may be left off the sequences shown.

Key:
[1] = molecular target: T1, CASTOR1 in MCF7 cells (not stated (in human MCF7 cells)) (UniProt Q8WTX7); assay: co-IP; MCF7 cells; antibody-conjugated agarose beads, immunoblot
T1 sequence: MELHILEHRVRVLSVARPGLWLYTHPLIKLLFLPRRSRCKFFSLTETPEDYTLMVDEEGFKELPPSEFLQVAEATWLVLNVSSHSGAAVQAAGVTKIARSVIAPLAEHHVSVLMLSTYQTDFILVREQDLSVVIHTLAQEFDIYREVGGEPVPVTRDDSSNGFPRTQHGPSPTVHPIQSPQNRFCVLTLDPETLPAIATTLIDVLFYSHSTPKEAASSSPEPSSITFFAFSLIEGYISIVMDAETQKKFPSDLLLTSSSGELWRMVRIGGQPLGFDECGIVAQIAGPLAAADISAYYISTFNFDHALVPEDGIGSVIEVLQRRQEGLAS

[2] = molecular target: T2, Flag-CASTOR1 WT (human cytosolic arginine sensor for mTORC1 subunit 1) (human) (UniProt Q8WTX7); assay: co-IP; CASTOR1 with AKT1, AKT1 domains or endogenous AKT; cells not given; lysis in 50 mM Tris-HCl pH 7.4, 150 mM NaCl, 1 mM EDTA, 1% Triton X-100; antibody-conjugated agarose beads at 4 °C overnight; immunoblot
T2 sequence: T1 sequence

Substance: endogenous AKT (human (endogenous in 293T and MCF7)) (enzyme)
- binding [1]: binds
- binding [2]: binds
